According to PubChem BioAssay AID248 (DTP/NCI, 2004):
The list does not hold the whole screen: it gathers tests that were run many times, whatever their T/C, doses with no T/C, and many T/C values between a quarter and a half above the control. Other doses and runs of a compound stand elsewhere. T/C is the treated group as % of the vehicle group. Some doses have a count of surviving animals in place of a T/C: the source holds a T/C of zero for them, seemingly a mark for toxic or unscored doses. Some survivor counts are full or nearly so, which does not show that the dose was tolerated: survival well below the control is almost never listed, so the zero probably covers shortened survival too. Counts of survivors are from the toxicity check (mostly the fifth day) where no day follows; animals may have died later. Schedule codes are those of the source, taken here to give the interval after Q, in days (D) or hours (H), and the number of doses after X. Some doses were run more than once; the results are listed from low to high. For survival time, the PubChem record calls one and a half times the control and up active, and a quarter to a half above the control has no call in these data; cut-offs in other NCI protocols can differ. Some T/C values are followed by the survivors on the day toxicity was checked, most often the fifth; without a count, all were alive then.

Test system: L1210 leukemia ip in BDF1 mice, survival T/C
Assay: NCI In Vivo Anticancer Drug Screen. Data for tumor model L1210 Leukemia (intraperitoneal) in B6D2F1 (BDF1) mice
Details: higher T/C = longer survival

How did the survivor count (T/C endpoint: mean survival time, dose: 512.0 micrograms/kg/injection, schedule: Q01DX001 (ip), vehicle: saline) turn out when `Cc1c2oc3c(C)ccc(C(=O)N[C@@H]4C(=O)N[C@H](C(C)C)C(=O)N5CCC[C@H]5C(=O)N(C)CC(=O)N(C)[C@@H](C(C)C)C(=O)O[C@H]4C)c3nc-2c(C(=O)N[C@@H]2C(=O)N[C@H](C(C)C)C(=O)N3CCC[C@H]3C(=O)N(C)CC(=O)N(C)[C@@H](C(C)C)C(=O)O[C@H]2C)c(N)c1=O` was run?
Its survivor count is 3 of 10.

What about the survivor count (T/C endpoint: mean survival time, dose: 600.0 micrograms/kg/injection, schedule: Q04DX003 (ip), vehicle: saline + alcohol) of the same compound?
The survivor count was 7 of 8.

And the T/C (T/C endpoint: mean survival time, dose: 600.0 micrograms/kg/injection, schedule: Q04DX003 (ip), vehicle: saline)?
Its T/C is 146 % of control.

And the T/C (T/C endpoint: median survival time, dose: 0.04 mg/kg/injection, schedule: Q01DX009 (ip), vehicle: water)?
The T/C was 128 % of control.

What about the T/C (T/C endpoint: median survival time, dose: 0.05 mg/kg/injection, schedule: Q01DX009 (ip), vehicle: water, evaluated on day 5) of the same compound?
Its T/C is 147 % of control.

And the T/C (T/C endpoint: median survival time, dose: 0.05 mg/kg/injection, schedule: Q01DX009 (ip), vehicle: water, evaluated on day 19)?
Its T/C is 147 % of control.

What about the T/C (T/C endpoint: median survival time, dose: 0.06 mg/kg/injection, schedule: Q01DX009 (ip), vehicle: water, evaluated on day 5) of the same compound?
Its T/C is 127 % of control.

And the T/C (T/C endpoint: median survival time, dose: 0.06 mg/kg/injection, schedule: Q01DX009 (ip), vehicle: water, evaluated on day 19)?
The T/C was 127 % of control.

And the T/C (T/C endpoint: median survival time, dose: 0.07 mg/kg/injection, schedule: Q01DX009 (ip), vehicle: water, evaluated on day 5)?
The T/C was 146 % of control.

And the T/C (T/C endpoint: median survival time, dose: 0.07 mg/kg/injection, schedule: Q01DX009 (ip), vehicle: water, evaluated on day 19)?
The T/C was 146 % of control.

What about the T/C (T/C endpoint: median survival time, dose: 0.1 mg/kg/injection, schedule: Q01DX002 (ip), vehicle: saline, evaluated on day 5) of the same compound?
Its T/C is 130 % of control.

And the T/C (T/C endpoint: median survival time, dose: 0.1 mg/kg/injection, schedule: Q01DX002 (ip), vehicle: saline, evaluated on day 20)?
The T/C was 130 % of control.

What about the T/C (T/C endpoint: median survival time, dose: 0.12 mg/kg/injection, schedule: Q04DX003 (ip), vehicle: saline) of the same compound?
Its T/C is 136 % of control.

And the T/C (T/C endpoint: median survival time, dose: 0.12 mg/kg/injection, schedule: Q04DX003 (ip), vehicle: water)?
The T/C was 128 % of control.

And the T/C (T/C endpoint: median survival time, dose: 0.13 mg/kg/injection, schedule: Q04DX003 (ip), vehicle: saline)?
Its T/C is 136 % of control.

And the T/C (T/C endpoint: median survival time, dose: 0.13 mg/kg/injection, schedule: Q04DX003 (ip), vehicle: water)?
The T/C was 128 % of control.

And the T/C (T/C endpoint: median survival time, dose: 0.2 mg/kg/injection, schedule: Q01DX002 (ip), vehicle: saline, evaluated on day 5)?
Its T/C is 131 % of control.

What about the T/C (T/C endpoint: median survival time, dose: 0.2 mg/kg/injection, schedule: Q01DX002 (ip), vehicle: saline, evaluated on day 20) of the same compound?
Its T/C is 131 % of control.

And the T/C (T/C endpoint: median survival time, dose: 0.25 mg/kg/injection, schedule: Q04DX003 (ip), vehicle: water, evaluated on day 5)?
The T/C was 132 % of control.

And the T/C (T/C endpoint: median survival time, dose: 0.25 mg/kg/injection, schedule: Q04DX003 (ip), vehicle: water, evaluated on day 30)?
Its T/C is 132 % of control.

What about the T/C (T/C endpoint: median survival time, dose: 0.25 mg/kg/injection, schedule: Q04DX003 (ip), vehicle: water, evaluated on day 60) of the same compound?
The T/C was 127 % of control.

And the T/C (T/C endpoint: median survival time, dose: 0.25 mg/kg/injection, schedule: Q08DX002 (ip), vehicle: water)?
The T/C was 133 % of control.

What about the survivor count (T/C endpoint: median survival time, dose: 0.4 mg/kg/injection, schedule: Q01DX002 (ip), vehicle: saline) of the same compound?
The survivor count was 8 of 8.

What about the T/C (T/C endpoint: median survival time, dose: 0.5 mg/kg/injection, schedule: Q01DX001 (ip), vehicle: water) of the same compound?
Its T/C is 127 % of control [9 of 10 alive].

What about the T/C (T/C endpoint: median survival time, dose: 0.5 mg/kg/injection, schedule: Q08DX002 (ip), vehicle: water) of the same compound?
The T/C was 138 % of control [9 of 10 alive].

And the survivor count (T/C endpoint: median survival time, dose: 1.0 mg/kg/injection, schedule: Q01DX001 (ip), vehicle: water)?
The survivor count was 1 of 10.

What about the survivor count (T/C endpoint: median survival time, dose: 1.0 mg/kg/injection, schedule: Q04DX003 (ip), vehicle: saline) of the same compound?
Its survivor count is 1 of 8.

What about the survivor count (T/C endpoint: median survival time, dose: 1.0 mg/kg/injection, schedule: Q04DX003 (ip), vehicle: water) of the same compound?
Its survivor count is 3 of 8 and 4 of 10.

What about the survivor count (T/C endpoint: median survival time, dose: 1.0 mg/kg/injection, schedule: Q08DX002 (ip), vehicle: water) of the same compound?
The survivor count was 3 of 10.

And the T/C (T/C endpoint: median survival time, dose: 25.0 micrograms/kg/injection, schedule: Q01DX009 (ip), vehicle: saline)?
Its T/C is 130 and 137 % of control.

And the T/C (T/C endpoint: median survival time, dose: 25.0 micrograms/kg/injection, schedule: Q01DX009 (ip), vehicle: water)?
The T/C was 126 % of control.

And the T/C (T/C endpoint: median survival time, dose: 50.0 micrograms/kg/injection, schedule: Q01DX009 (ip), vehicle: saline)?
Its T/C is 135 and 137 % of control.

And the T/C (T/C endpoint: median survival time, dose: 50.0 micrograms/kg/injection, schedule: Q01DX009 (ip), vehicle: water)?
The T/C was 146 % of control.

And the survivor count (T/C endpoint: median survival time, dose: 62.0 micrograms/kg/injection, schedule: Q03HX016 (ip), vehicle: water)?
The survivor count was 6 of 10.

What about the survivor count (T/C endpoint: median survival time, dose: 100.0 micrograms/kg/injection, schedule: Q01DX009 (ip), vehicle: saline) of the same compound?
The survivor count was 6 of 6.

And the T/C (T/C endpoint: median survival time, dose: 100.0 micrograms/kg/injection, schedule: Q01DX009 (ip), vehicle: water)?
The T/C was 131 % of control.

What about the survivor count (T/C endpoint: median survival time, dose: 125.0 micrograms/kg/injection, schedule: Q01DX009 (ip), vehicle: water) of the same compound?
The survivor count was 10 of 10.

What about the survivor count (T/C endpoint: median survival time, dose: 125.0 micrograms/kg/injection, schedule: Q03HX008 (ip), vehicle: water) of the same compound?
The survivor count was 0 of 10.

What about the survivor count (T/C endpoint: median survival time, dose: 125.0 micrograms/kg/injection, schedule: Q03HX016 (ip), vehicle: water) of the same compound?
The survivor count was 0 of 10.

And the T/C (T/C endpoint: median survival time, dose: 150.0 micrograms/kg/injection, schedule: Q04DX003 (ip), vehicle: water)?
Its T/C is 129 % of control.

What about the T/C (T/C endpoint: median survival time, dose: 200.0 micrograms/kg/injection, schedule: Q01DX001 (ip), vehicle: water) of the same compound?
The T/C was 125 % of control.

And the survivor count (T/C endpoint: median survival time, dose: 200.0 micrograms/kg/injection, schedule: Q01DX009 (ip), vehicle: saline)?
The survivor count was 5 of 6.

What about the survivor count (T/C endpoint: median survival time, dose: 250.0 micrograms/kg/injection, schedule: Q01DX009 (ip), vehicle: water) of the same compound?
Its survivor count is 8 of 10.

And the T/C (T/C endpoint: median survival time, dose: 300.0 micrograms/kg/injection, schedule: Q04DX003 (ip), vehicle: water)?
The T/C was 140 % of control.

What about the T/C (T/C endpoint: median survival time, dose: 400.0 micrograms/kg/injection, schedule: Q01DX001 (ip), vehicle: water) of the same compound?
The T/C was 126 % of control.

What about the T/C (T/C endpoint: median survival time, dose: 800.0 micrograms/kg/injection, schedule: Q01DX001 (ip), vehicle: water) of the same compound?
The T/C was 140 % of control.

And the survivor count (T/C endpoint: median survival time, dose: 1600.0 micrograms/kg/injection, schedule: Q01DX001 (ip), vehicle: water)?
Its survivor count is 0 of 10.
